Measurements reported in PubChem BioAssay AID1259273 (Sanger Institute, 2017).

- Test: 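Kinases whose loss is synthetic lethal with BYL719, cetuximab or trametinib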 (follow-up of hits)
- Cells: human NCI-H630 colorectal cancer cells
- Knock-down reagent: single siRNA against human genes
- Conditions: anchor drugs BYL719 at 1 µM, cetuximab at 5 µg/ml or trametinib at 10 nM, or DMSO vehicle alone
- Measured: 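Replicate-averaged viability scaled to non-targeting control pool wells, plus per-drug synergy scores comparing knock-down with drug to knock-down only and drug only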
- Scale: synergy score with trametinib and synergy score with BYL719 and synergy score with cetuximab: higher = stronger synergy, more synthetic lethal; viability with trametinib: higher = more viable cells with knock-down plus drug; viability, vehicle only: higher = more viable cells after knock-down
- Call rule: 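Called synergistic (synthetic lethal) when the mean synergy score is above 0.10 for one or more of the three anchor drugs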
In all, the deposit lists 160 reagents; this is an unselected part. Over the whole deposit, 36 (22%) were called active. 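Four distinct siRNA duplexes per gene; each call applies to one duplex and is not gene-level validation across cell lines.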 Viability is capped at 1. The record does not give: the amount of reagent, the time to read-out.

| gene | PubChem SID | synergy score with trametinib | synergy score with BYL719 | synergy score with cetuximab | viability with trametinib (fraction of control) | viability, vehicle only (fraction of control) | Outcome |
| --- | --- | --- | --- | --- | --- | --- | --- |
| MPP3 | SID56478207 | -0.0313 | -0.11 | -0.129 | 0.891 | 0.959 | inactive |
| MPP3 | SID56478208 | 0.0976 | -0.17 | -0.0884 | 0.73 | 0.923 | inactive |
| MPP3 | SID56478209 | -0.0211 | -0.0463 | -0.0532 | 0.918 | 1 | inactive |
| MPP3 | SID56478210 | 0.1 | -0.0775 | -0.154 | 0.796 | 1 | active |
| NR2F2 | SID134229233 | 0.103 | -0.0931 | -0.154 | 0.793 | 1 | active |
| NR2F2 | SID134229234 | -0.103 | -0.146 | -0.23 | 1 | 1 | inactive |
| NR2F2 | SID134229235 | -0.017 | -0.127 | -0.23 | 0.914 | 1 | inactive |
| NR2F2 | SID134229236 | 0.0294 | -0.0244 | -0.114 | 0.728 | 0.844 | inactive |
| PLK1 | SID56475783 | 0.00411 | 0.0377 | -0.0406 | 0.329 | 0.372 | inactive |
| PLK1 | SID56475784 | -0.022 | 0.0222 | -0.0861 | 0.36 | 0.377 | inactive |
| PLK1 | SID56475785 | -0.0432 | -0.0258 | -0.0767 | 0.365 | 0.359 | inactive |
| PLK1 | SID56475786 | -0.0736 | -0.0175 | -0.0935 | 0.307 | 0.26 | inactive |
| STK36 | SID56477127 | 0.115 | -0.112 | -0.104 | 0.651 | 0.854 | active |
| STK36 | SID56477128 | -0.0976 | -0.146 | -0.23 | 0.994 | 1 | inactive |
| STK36 | SID56477129 | 0.0608 | -0.177 | -0.00689 | 0.803 | 0.964 | inactive |
| STK36 | SID135611686 | -0.0426 | -0.0735 | -0.218 | 0.939 | 1 | inactive |
| SYK | SID56475471 | 0.252 | 0.161 | 0.134 | 0.619 | 0.972 | active |
| SYK | SID56475472 | 0.0865 | -0.146 | 0.0117 | 0.81 | 1 | inactive |
| SYK | SID56475473 | 0.158 | -0.0206 | -0.0531 | 0.657 | 0.908 | active |
| SYK | SID56475474 | -0.103 | -0.144 | -0.23 | 1 | 1 | inactive |
| HSPB8 | SID56477019 | 0.206 | 0.0229 | 0.0732 | 0.575 | 0.871 | active |
| HSPB8 | SID56477020 | -0.088 | -0.133 | -0.144 | 0.985 | 1 | inactive |
| HSPB8 | SID56477021 | 0.0514 | -0.146 | -0.0518 | 0.845 | 1 | inactive |
| HSPB8 | SID56477022 | 0.132 | -0.0888 | -0.0842 | 0.764 | 1 | active |
| MAP3K8 | SID56475911 | -0.103 | -0.146 | -0.23 | 1 | 1 | inactive |
| MAP3K8 | SID56475912 | 0.00408 | -0.112 | 0.0141 | 0.78 | 0.875 | inactive |
| MAP3K8 | SID56475913 | -0.0483 | -0.114 | -0.0452 | 0.92 | 0.972 | inactive |
| MAP3K8 | SID56475914 | -0.0847 | -0.0611 | 0.0354 | 0.981 | 1 | inactive |
| CDK6 | SID56475655 | 0.189 | -0.137 | -0.0261 | 0.707 | 1 | active |
| CDK6 | SID56475656 | 0.197 | -0.111 | 0.00382 | 0.624 | 0.915 | active |
| CDK6 | SID56475657 | 0.0782 | -0.0601 | -0.0791 | 0.818 | 1 | inactive |
| CDK6 | SID56475658 | 0.12 | 0.0471 | 0.015 | 0.776 | 1 | active |
| BMPR2 | SID56477247 | -0.103 | -0.146 | -0.23 | 1 | 1 | inactive |
| BMPR2 | SID56477249 | -0.103 | -0.135 | 0.0568 | 1 | 1 | inactive |
| BMPR2 | SID56477250 | -0.103 | -0.146 | -0.199 | 1 | 1 | inactive |
| BMPR2 | SID135611748 | -0.105 | -0.147 | -0.0746 | 1 | 0.999 | inactive |
| CRIM1 | SID134243173 | -0.0167 | -0.0901 | -0.0361 | 0.836 | 0.914 | inactive |
| CRIM1 | SID134243174 | -0.18 | -0.179 | -0.264 | 1 | 0.915 | inactive |
| CRIM1 | SID134243175 | -0.103 | -0.0481 | -0.00271 | 1 | 1 | inactive |
| CRIM1 | SID134243176 | -0.0553 | -0.204 | -0.0183 | 0.84 | 0.875 | inactive |
| IKBKB | SID56475899 | -0.0589 | -0.124 | 0.0683 | 0.955 | 1 | inactive |
| IKBKB | SID56475900 | -0.0113 | -0.044 | -0.075 | 0.832 | 0.916 | inactive |
| IKBKB | SID56475901 | 0.104 | -0.14 | -0.0646 | 0.792 | 1 | active |
| IKBKB | SID56475902 | -0.0538 | -0.158 | -0.0857 | 0.913 | 0.958 | inactive |
| COASY | SID56477723 | 0.128 | -0.0791 | -0.121 | 0.746 | 0.975 | active |
| COASY | SID56477724 | -0.143 | 0.0106 | -0.105 | 0.751 | 0.678 | inactive |
| COASY | SID56477725 | -0.0115 | -0.0701 | 0.0148 | 0.651 | 0.714 | inactive |
| COASY | SID56477726 | 0.0482 | -0.0184 | 0.0431 | 0.615 | 0.739 | inactive |
| CDKN2D | SID56475683 | 0.0344 | -0.154 | 0.0584 | 0.781 | 0.91 | inactive |
| CDKN2D | SID56475684 | 0.102 | 0.0354 | 0.0742 | 0.533 | 0.708 | active |
| CDKN2D | SID56475686 | 0.15 | -0.113 | -0.0763 | 0.747 | 1 | active |
| CDKN2D | SID135611272 | 0.197 | 0.181 | 0.0173 | 0.645 | 0.939 | active |
